In the supplement of paper PMC5949888:
± gives the standard deviation of the averaged measurements. Most values lie at the floor of the assay. Slopes are relative: functional sequences can read slightly below zero.

System: Saccharomyces cerevisiae PS128 hsf1 delta, HSF1(1-493) fusion
Assay: growth estimate (transactivation domain function in HSF1 fusion, heat-shock survival) (a.u. (slope of normalised read count over time)); higher = stronger growth at 37°C, i.e. more transactivation activity
Details: library: random library
Protocol: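 Random 60-nt DNA library encoding peptides of up to 20 aa, fused to the C-terminus of yeast HSF1 residues 1-493 (C-terminal TAD deleted) and expressed from the native HSF1 promoter on a CEN plasmid in hsf1-deleted S. cerevisiae PS128. Cells were selected at 37°C on -trp 5-FOA plates for 0, 2, 4, 6 and 8 days and amplicons were sequenced. Growth estimate is the slope of a robust linear fit of total-sum-normalised read counts (normalised to the first time point) over time, using at least 2 replicates. Sequences are classed functional (TAD activity) above a threshold of -0.13, set from stop-codon control sequences.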

Substance | growth estimate
GSCGSKY | -0.246
GSCGSTTNCECALKSCCTEV | < -0.25
GSCLVGADGLVETERAVVFG | < -0.25
GSCPTTVFA | < -0.25
GSCRPGLR | < -0.25
GSCTIWWWLLAPRLISIRLH | < -0.25
GSDI | < -0.25
GSDLTNFFYVKPSMMPR | < -0.25
GSDSYRMEVSSA | < -0.25
GSEYVVWRPPQASSCANETV | < -0.25
GSFAPS | -0.246
GSFCLKQQRDVGT | < -0.25
GSG | -0.2493 ± 0.0017
GSGARMYVVLLP | -0.245
GSGEVLSPWIQLLSMPRERG | < -0.25
GSGLLILVTFHDKQ | < -0.25
GSGRCESACR | < -0.25
GSGSLWLTSFANVGRIESGY | < -0.25
GSGTIDIESIRHPAADQQEP | < -0.25
GSGVTSELRHAMADASLGE | < -0.25
GSHEFLALKYEMTQPDQPGS | < -0.25
GSHFT | < -0.25
GSHKDLLTRALRRQVAAPKS | < -0.25
GSHLLAGSHNRECQLIDIPC | < -0.25

Substance | growth estimate
GSL | < -0.25
GSLCGLYYQNAVPVHCIGKT | < -0.25
GSLEL | < -0.25
GSLGASASLPRGAADGNTKS | < -0.25
GSLS | < -0.25
GSMM | < -0.25
GSMRAFPGTRLWRGSQLGRA | < -0.25
GSNMDIGQIVRIE | < -0.25
GSNTWSLENVGLRILDRYYY | < -0.25
GSPKRAGQK | < -0.25
GSPLVPPHAFFR | < -0.25
GSPNPGFVSSPSLLSTTSWS | < -0.25
GSPVRSVEIREMIIELRPTH | < -0.25
GSQNPQSWIMVIGRKRRRAS | < -0.25
GSQRGSTRPGQLI | < -0.25
GSR | < -0.25
GSRACICITNRRDQLEGTHC | < -0.25
GSRER | < -0.25
GSRFRGLPRATYGSFICDLA | < -0.25
GSRGRTM | < -0.25
GSRLPKL | -0.221
GSRNVLQRA | < -0.25
GSRPREARSSAGCGL | < -0.25
GSRRTVVVSCS | < -0.25

Substance | growth estimate
GSRTAVSKRESTCSVSVS | < -0.25
GSRVWEAGSDARYRDLRVMR | < -0.25
GSRYYPKRWTCSD | < -0.25
GSSDR | < -0.25
GSSDSFLPVFKRGWASKIAL | < -0.25
GSSINVRNGGENNGFTSRAE | < -0.25
GSSKFDSLWGQVNASSMGWS | < -0.25
GSSRWSKGRPPNHT | < -0.25
GSSVDRLS | < -0.25
GSSVQNRRAVVSSLNVPHPV | -0.241
GSTAIQPLRCR | < -0.25
GSTDSLLPWMLAASPTYHDP | < -0.25
GSTFNREWFEIFWRNNLVVG | < -0.25
GSTFSSRAYCVMTIRKAVSC | < -0.25
GSTP | < -0.25
GSTRIKARWQFVRGYSGGAM | < -0.25
GSTSVTRFVAGCLSTLSNLA | < -0.25
GSVAASQDGSSS | < -0.25
GSVAHSGG | < -0.25
GSVCHNRELFGTAYDKGAKA | < -0.25
GSVE | < -0.25
GSVLREGRHLRCKPPLGYSH | < -0.25
GSVRA | < -0.25
GSVT | < -0.25

Substance | growth estimate
GSVTARHMQLTRGNIVS | < -0.25
GSWPL | < -0.25
GSWSSSRGVLGPDELGACLP | < -0.25
GSWVQEEAHCITAKRCLVTR | < -0.25
GSY | < -0.25
GSYPYST | < -0.25
GTAEGRESLGGPNHTRSLSR | < -0.25
GTASD | < -0.25
GTAVRTSRSRGNDLRTKCVP | < -0.25
GTCLPESFWAHAARSDRSGS | < -0.25
GTCRHRQARVLIPAERLPLK | < -0.25
GTCVVCT | < -0.25
GTDCHYKRTLILSGYD | < -0.25
GTDLRLCVWNWFTHDTHSSA | < -0.25
GTDNSSRDHRRNGTRAGWID | < -0.25
GTDPDVRVRSDSEL | < -0.25
GTEAAGNIPVVFP | < -0.25
GTEVTTRSKHAIAQALDLMR | < -0.25
GTFA | < -0.25
GTFQLHQHYCERSPDCVPIL | < -0.25
GTGFSLMVQQTTRPLWVDFC | < -0.25
GTGPIVGSPSRCGI | < -0.25
GTHPGHFNVSTGEKAREPSG | 0.184
GTIADGLNRESGYPLVP | < -0.25

An excerpt of these results, with tabs:
Substance	growth estimate
GTDPDVRVRSDSEL	< -0.25
GTEAAGNIPVVFP	< -0.25
GTEVTTRSKHAIAQALDLMR	< -0.25
GTFA	< -0.25
